The text below walks through data of PMC3723245.

Protein sequences, listed by entry. Tags and fused reporters are not part of them.
UniProt P27482: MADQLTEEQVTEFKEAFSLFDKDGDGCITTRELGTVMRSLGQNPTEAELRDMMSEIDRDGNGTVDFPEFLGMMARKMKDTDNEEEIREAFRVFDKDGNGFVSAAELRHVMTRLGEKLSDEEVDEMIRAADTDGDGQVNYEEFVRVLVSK

For the assay, the target named is Human calmodulin-like protein CALML3 (human) (UniProt P27482). Kind of assay: two-hybrid; yeast two-hybrid screen; unpublished observation of two named persons (Bennett and Strehler); no conditions told.

No constants are given. Whether binding was seen depends on the method and setting. Some binding calls cover weakened binding; strength is not graded here.

B1: IQ motif containing protein E (protein, UniProt Q6IPM2 1-695)
chain: MFLGTGEPALDTGDDSLSAVTFDSDVETKAKRKAFHKPPPTSPKSPYLSKPRKVASWRSLRTAGSMPLGGRASLTPQKLWLGTAKPGSLTQALNSPLTWEHAWTGVPGGTPDCLTDTFRVKRPHLRRSASNGHVPGTPVYREKEDMYDEIIELKKSLHVQKSDVDLMRTKLRRLEEENSRKDRQIEQLLDPSRGTDFVRTLAEKRPDASWVINGLKQRILKLEQQCKEKDGTISKLQTDMKTTNLEEMRIAMETYYEEVHRLQTLLASSETTGKKPLGEKKTGAKRQKKMGSALLSLSRSVQELTEENQSLKEDLDRVLSTSPTISKTQGYVEWSKPRLLRRIVELEKKLSVMESSKSHAAEPVRSHPPACLASSSALHRQPRGDRNKDHERLRGAVRDLKEERTALQEQLLQRDLEVKQLLQAKADLEKELECAREGEEERREREEVLREEIQTLTSKLQELQEMKKEEKEDCPEVPHKAQELPAPTPSSRHCEQDWPPDSSEEGLPRPRSPCSDGRRDAAARVLQAQWKVYKHKKKKAVLDEAAVVLQAAFRGHLTRTKLLASKAHGSEPPSVPGLPDQSSPVPRVPSPIAQATGSPVQEEAIVIIQSALRAHLARARHSATGKRTTTAASTRRRSASATHGDASSPPFLAALPDPSPSGPQALAPLPGDDVNSDDSDDIVIAPSLPTKNFPV
As to B1, the binding result is recorded as “binds”.
